Measurements from paper doi:10.1101/2022.09.22.509106.
These are yes or no findings as the source states them, for the method shown. Where a sequence is shown, tags or fusion partners need not be part of it.

T1: purified human complement C2 (human) (UniProt P06681)
T1 sequence: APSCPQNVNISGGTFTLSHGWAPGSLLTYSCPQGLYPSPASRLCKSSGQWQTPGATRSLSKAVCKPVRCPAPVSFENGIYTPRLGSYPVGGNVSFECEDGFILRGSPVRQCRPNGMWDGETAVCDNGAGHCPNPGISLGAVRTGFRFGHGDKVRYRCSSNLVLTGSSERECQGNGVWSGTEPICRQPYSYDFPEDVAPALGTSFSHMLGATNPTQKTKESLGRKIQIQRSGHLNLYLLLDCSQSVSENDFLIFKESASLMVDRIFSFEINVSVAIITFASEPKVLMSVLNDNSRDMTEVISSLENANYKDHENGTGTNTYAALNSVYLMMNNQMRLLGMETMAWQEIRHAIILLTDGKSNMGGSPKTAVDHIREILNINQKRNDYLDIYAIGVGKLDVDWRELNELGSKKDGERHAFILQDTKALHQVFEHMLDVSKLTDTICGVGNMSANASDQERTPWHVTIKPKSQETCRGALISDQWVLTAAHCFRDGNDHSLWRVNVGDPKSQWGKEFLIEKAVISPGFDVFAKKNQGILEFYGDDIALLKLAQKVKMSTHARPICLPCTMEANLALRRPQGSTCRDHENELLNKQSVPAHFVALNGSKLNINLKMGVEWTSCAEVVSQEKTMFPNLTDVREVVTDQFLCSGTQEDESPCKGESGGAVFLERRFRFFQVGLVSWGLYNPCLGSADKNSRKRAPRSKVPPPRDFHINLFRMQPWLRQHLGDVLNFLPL


Target: T1, purified human complement C2 (human)
Experiment: ELISA

binding | Binder
no binding (tested: 4 µg/mL) | neuronal pentraxin 1 (Nptx1), purified recombinant, His-tagged (protein, UniProt Q15818 23-432) QDFGPTRFICTSVPVDADMCAASVAAGGAEELRSSVLQLRETVLQQKETILSQKETIRELTAKLGRCESQSTLDPGAGEARAGGGRKQPGSGKNTMGDLSRTPAAETLSQLGQTLQSLKTRLENLEQYSRLNSSSQTNSLKDLLQSKIDELERQVLSRVNTLEEGKGGPRNDTEERVKIETALTSLHQRISELEKGQKDNRPGDKFQLTFPLRTNYMYAKVKKSLPEMYAFTVCMWLKSSATPGVGTPFSYAVPGQANELVLIEWGNNPMEILINDKVAKLPFVINDGKWHHICVTWTTRDGVWEAYQDGTQGGSGENLAPYHPIKPQGVLVLGQEQDTLGGGFDATQAFVGELAHFNIWDRKLTPGEVYNLATCSTKALSGNVIAWAESHIEIYGGATKWTFEACRQIN
no binding (tested: 4 µg/mL) | neuronal pentraxin 2 (Nptx2), purified recombinant, His-tagged (protein, UniProt P47972 16-431) GAQDSPAPGSRFVCTALPPEAVHAGCPLPAMPMQGGAQSPEEELRAAVLQLRETVVQQKETLGAQREAIRELTGKLARCEGLAGGKARGAGATGKDTMGDLPRDPGHVVEQLSRSLQTLKDRLESLEHQLRANVSNAGLPGDFREVLQQRLGELERQLLRKVAELEDEKSLLHNETSAHRQKTESTLNALLQRVTELERGNSAFKSPDAFKVSLPLRTNYLYGKIKKTLPELYAFTICLWLRSSASPGIGTPFSYAVPGQANEIVLIEWGNNPIELLINDKVAQLPLFVSDGKWHHICVTWTTRDGMWEAFQDGEKLGTGENLAPWHPIKPGGVLILGQEQDTVGGRFDATQAFVGELSQFNIWDRVLRAQEIVNIANCSTNMPGNIIPWVDNNVDVFGGASKWPVETCEERLLDL
